Laboratory results reported in patent US12582656B2, “Nucleotide analogues” (R.G.C.C. Holdings AG, priority 2020, dated 2026).
Some entries share one result that the patent states for a list of compounds. Some compounds share one range, which may span the group rather than tell each member.

Target: SARS-COV-2 polymerase NSP12 (Severe acute respiratory syndrome coronavirus 2, UniProt P0DTD1)
Experiment: SARS-CoV-2 RNA polymerization assay with RdRp catalytic domain, PAGE gel (FIG. 2)
Assay type: biochemical
Conditions: rATP split 50:50 with compound, positive control smear 600-1200 bp

Compound | location of smear of amplification products
Nc1ncnc2c1ncn2-c1nc(O)c2ccccc2n1 [Compound A, 2-(6-amino-9H-purin-9-yl)quinazolin-4-ol] | 700-900 bp
Nc1ncnc2c1ncn2-c1nc(OP(=O)(O)O)c2ccccc2n1 [Compound C, 2-(6-amino-9H-purin-9-yl)quinazolin-4-yl dihydrogen phosphate] | 700-900 bp
Nc1ncnc2c1ncn2-c1nc(O)c2ccc(F)cc2n1 [Compound B, 2-(6-amino-9H-purin-9-yl)-7-fluoro-quinazolin-4-ol] | 700-900 bp
